Inconclusive results, whose numbers are uncertain, are shown with a selection of clear calls. For some assays here: Potencies of inconclusive entries are doubtful fits and often do not repeat. Activity calls are given as the source filed them. Calls come from the whole dose curve; as a rule, active = well fitted curve in the direction sought with a large enough effect; inconclusive = small, poorly fitted or top-dose-only effect, or another doubt; inactive = no such curve, though single readings can be large; an effect the other way counts as inactive or inconclusive.
Tests used:
[1] = Quantitative High-Throughput drug screen in 47 multiple myeloma cell lines against the NCATS MIPE library collection: H1112_PLB cell viability assay (AID 1918967; note: potency is the fitted concentration of half-maximal effect; nearly all actives have a fitted effect of over 30% in size)
Summary of the method: (§1)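 CellTiter-Glo luminescence (ATP) after 48 h compound exposure, 37C/5% CO2; 500 cells/well; MIPE 4.0 approved/investigational drugs pinned in; DMSO = 100%, media only = 0% viability.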

[2] = Quantitative High-Throughput drug screen in 47 multiple myeloma cell lines against the NCATS MIPE library collection: Karpas25_ECACC cell viability assay (AID 1918968; note: potency is the fitted concentration of half-maximal effect; nearly all actives have a fitted effect of over 35% in size)
Summary of the method: as §1

[3] = Quantitative High-Throughput drug screen in 47 multiple myeloma cell lines against the NCATS MIPE library collection: KMS27_JCRB cell viability assay (AID 1918970); note: potency is the fitted concentration of half-maximal effect; nearly all actives have a fitted effect of over 30% in size
Summary of the method: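 KMS27_JCRB myeloma cells, 500 per well, exposed 48 h at 37 C, 5% CO2 to MIPE 4.0 compounds. Viability from ATP by CellTiter-Glo luminescence, normalized to DMSO (100%) and medium-only (0%) wells.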

[4] = Quantitative High-Throughput drug screen in 47 multiple myeloma cell lines against the NCATS MIPE library collection: KMS12BM_JCRB cell viability assay (AID 1918971); note: nearly all actives have a fitted effect of over 35% in size
Summary of the method: (§2)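 Relative luminescence from CellTiter-Glo served as the viability signal, referenced to DMSO-treated (100%) and cell-free medium (0%) controls. Treatment lasted 48 hours at 37C with 500 cells per well.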

[5] = Quantitative High-Throughput drug screen in 47 multiple myeloma cell lines against the NCATS MIPE library collection: KMS12PE_JCRB cell viability assay (AID 1918972); note: nearly all actives have a fitted effect of over 30% in size
Summary of the method: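 Luminescent ATP measurement with CellTiter-Glo gives viability, scaled between DMSO-only wells (100%) and media-only wells (0%). Cells, 500 per well, faced library compounds for 48 hours at 37C.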

[6] = Quantitative High-Throughput drug screen in 47 multiple myeloma cell lines against the NCATS MIPE library collection: KMS20_JCRB cell viability assay (AID 1918973); details: CellTiter-Glo ATP, 48 h; viability (% of DMSO): at 45.8 µM (top of the series); note: nearly all actives have a fitted effect of over 45% in size
Summary of the method: as §1

[7] = Quantitative High-Throughput drug screen in 47 multiple myeloma cell lines against the NCATS MIPE library collection: KMS21BM_JCRB cell viability assay (AID 1918974); note: potency is the fitted concentration of half-maximal effect
Summary of the method: as §1

[8] = Quantitative High-Throughput drug screen in 47 multiple myeloma cell lines against the NCATS MIPE library collection: KMS26_JCRB cell viability assay (AID 1918975); details: KMS26 myeloma cells viability, CellTiter-Glo ATP, 48 h; viability (% of DMSO): at 45.8 µM (top of the series); note: nearly all actives have a fitted effect of over 45% in size
Summary of the method: as §2

[9] = Quantitative High-Throughput drug screen in 47 multiple myeloma cell lines against the NCATS MIPE library collection: MMM1_PLB cell viability assay (AID 1918976); note: potency is the fitted concentration of half-maximal effect; nearly all actives have a fitted effect of over 35% in size
Summary of the method: (§3)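 qHTS format: cells plated (500/well), pin-dosed with MIPE 4.0 compounds, kept 48 h at 37 °C. Readout was CellTiter-Glo luminescence, median RLU.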

[10] = Quantitative High-Throughput drug screen in 47 multiple myeloma cell lines against the NCATS MIPE library collection: MOLP8_DSMZ cell viability assay (AID 1918977); details: MOLP8 myeloma viability, CellTiter-Glo ATP luminescence, 48 h; viability (% of control): at 45.8 µM (top of the series); note: nearly all actives have a fitted effect of over 45% in size
Summary of the method: as §3

[11] = Quantitative High-Throughput drug screen in 47 multiple myeloma cell lines against the NCATS MIPE library collection: MM1S_ATCC cell viability assay (AID 1918980); note: potency is the fitted concentration of half-maximal effect; nearly all actives have a fitted effect of over 45% in size
Summary of the method: as §3

[12] = Quantitative High-Throughput drug screen in 47 multiple myeloma cell lines against the NCATS MIPE library collection: L363_DSMZ cell viability assay (AID 1918984); details: L363 myeloma viability, CellTiter-Glo ATP luminescence, 48 h; viability (% of control): at 45.8 µM (top of the series); note: nearly all actives have a fitted effect of over 40% in size
Summary of the method: as §3

[13] = Quantitative High-Throughput drug screen in 47 multiple myeloma cell lines against the NCATS MIPE library collection: KMS34_JCRB cell viability assay (AID 1918985); note: nearly all actives have a fitted effect of over 40% in size
Summary of the method: as §3

[14] = Quantitative High-Throughput drug screen in 47 multiple myeloma cell lines against the NCATS MIPE library collection: OCIMY5_PLB cell viability assay (AID 1918988); note: potency is the fitted concentration of half-maximal effect; nearly all actives have a fitted effect of over 65% in size
Summary of the method: as §3

[15] = Quantitative High-Throughput drug screen in 47 multiple myeloma cell lines against the NCATS MIPE library collection: OPM1_PLB cell viability assay (AID 1918989); note: nearly all actives have a fitted effect of over 40% in size
Summary of the method: as §3

[16] = Quantitative High-Throughput drug screen in 47 multiple myeloma cell lines against the NCATS MIPE library collection: SKMM1_PLB cell viability assay (AID 1919863); details: SKMM1 myeloma viability, CellTiter-Glo ATP, 48 h; viability: hits give low values; note: nearly all actives have a fitted effect of over 35% in size
Summary of the method: as §3

[17] = Quantitative High-Throughput drug screen in 47 multiple myeloma cell lines against the NCATS MIPE library collection: VP6_DJ cell viability assay (AID 1919867); note: nearly all actives have a fitted effect of over 40% in size
Summary of the method: as §3

[18] = Quantitative High-Throughput drug screen in 47 multiple myeloma cell lines against the NCATS MIPE library collection: UTMC2_PLB cell viability assay (AID 1919868); details: CellTiter-Glo ATP luminescence, 48 h; viability (% of DMSO control): at 45.8 µM (top of the series); note: potency is the fitted concentration of half-maximal effect; nearly all actives have a fitted effect of over 55% in size
Summary of the method: as §3

[19] = Quantitative High-Throughput drug screen in 47 multiple myeloma cell lines against the NCATS MIPE library collection: OPM2_DSMZ cell viability assay (AID 1919872); note: nearly all actives have a fitted effect of over 30% in size
Summary of the method: as §1

[20] = Quantitative High-Throughput drug screen in 47 multiple myeloma cell lines against the NCATS MIPE library collection: KMS11_JCRBsus cell viability assay (AID 1919873); note: potency is the fitted concentration of half-maximal effect; nearly all actives have a fitted effect of over 50% in size
Summary of the method: as §3

[21] = Quantitative High-Throughput drug screen in 47 multiple myeloma cell lines against the NCATS MIPE library collection: KMS28BM_JCRB cell viability assay (AID 1919874)
Summary of the method: as §3

[22] = tested on: Hek293T; test: Primary qHTS to identify gynecologic anti-cancer compounds using libraries of approved drugs and bioactive compounds (AID 1345084); details: Gynecologic cancer cell panel viability, ATPlite luminescence, 48 h, control line for the selectivity index; series mostly up to 57.5 µM; note: potency is the fitted concentration of half-maximal effect; nearly all actives have a fitted effect of over 55% in size
Summary of the method: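 Five-concentration response, 48 h; readout is ATP-driven luciferase luminescence.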

[23] = Drug repurposing screens with cells derived from glioblastoma tumor samples (AID 1345199); details: GBM patient neurospheres viability, ATP luminescence, 48 h; Potency: tumour line A unless noted; activity, negative = cell killing: at 46 µM (top of the series), tumour line A unless noted
Summary of the method: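 Primary testing used CD133+ neurospheres from four GBM patients, seven concentrations, 48 h exposure and ATP-based viability; confirmation added three slower-growing patient lines.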

[24] = tested on: ATS95; test: qHTS profiling for inhibitors of Plasmodium falciparum proliferation (AID 504749); note: nearly all actives have a fitted effect of over 60% in size; note: potency is the fitted concentration of half-maximal effect; details: P. falciparum in erythrocytes, SYBR Green DNA, 72 h; series mostly up to 28.7 µM
Summary of the method: (§4)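 Quantitative HTS: compounds pinned into medium, infected erythrocytes added (0.3% parasitemia, 2.5% hematocrit), 72 h culture at 37 C under 5% CO2. Saponin/Triton lysis with SYBR Green I, overnight RT, then fluorescence read.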

[25] = tested on: CP215; test: as above; details: P. falciparum in erythrocytes, SYBR Green DNA, 72 h; series mostly up to 28.7 µM
Summary of the method: as §4

[26] = tested on: CP217; test: as above; details: P. falciparum in erythrocytes, SYBR Green DNA, 72 h; series mostly up to 28.7 µM
Summary of the method: as §4

[27] = tested on: CP237; test: as above; details: P. falciparum in erythrocytes, SYBR Green DNA, 72 h; series mostly up to 28.7 µM
Summary of the method: as §4

[28] = tested on: CP268; test: as above; details: P. falciparum in erythrocytes, SYBR Green DNA, 72 h; series mostly up to 28.7 µM
Summary of the method: as §4

[29] = tested on: CP291; test: as above; details: P. falciparum in erythrocytes, SYBR Green DNA, 72 h; series mostly up to 28.7 µM
Summary of the method: as §4

[30] = tested on: CP329; test: as above; details: P. falciparum in erythrocytes, SYBR Green DNA, 72 h; series mostly up to 28.7 µM
Summary of the method: as §4

[31] = tested on: DFO2036; test: as above; details: P. falciparum in erythrocytes, SYBR Green DNA, 72 h; series mostly up to 28.7 µM
Summary of the method: as §4

[32] = tested on: DIV14; test: as above; details: P. falciparum in erythrocytes, SYBR Green DNA, 72 h; series mostly up to 28.7 µM
Summary of the method: as §4

CCCCNc1cc(C(=O)O)cc(S(N)(=O)=O)c1Oc1ccccc1
inactive: Potency [4] | Potency [5] | Potency [6] | Potency [8] | Potency [10] | Potency [12] | Potency [13] | Potency [15] | viability [16] 158% | Potency [17] | Potency [19] | Potency [23] | Potency [24] | Potency [26] | Potency [27] | Potency [28] | Potency [29] | Potency [30] | Potency [31] | Potency [32]
inconclusive: Potency [1] 37.2 nM [rising, full curve, poor fit] | Potency [2] 3.3 nM [rising, full curve, poor fit] | Potency [3] 23.5 nM [rising, full curve, poor fit] | Potency [7] 332 nM [rising, full curve] | Potency [9] 13.2 nM [rising, full curve] | Potency [11] 1480 nM [rising, partial curve, poor fit] | Potency [14] 59 nM [rising, partial curve, poor fit] | Potency [18] 5260 nM [rising, partial curve, poor fit] | Potency [20] 1180 nM [rising, partial curve, poor fit] | Potency [21] 3.7 nM [rising, full curve, poor fit] | Potency [22] 631 nM [rising, full curve] | Potency [25] 9070 nM [inhibitor, single point]

From PubChem BioAssay (NCATS)
